Experimental data reported in paper PMC5640428.

Chains of the proteins cited; added tags and fusions are not shown. Residues count along the entry.
UniProt O88737: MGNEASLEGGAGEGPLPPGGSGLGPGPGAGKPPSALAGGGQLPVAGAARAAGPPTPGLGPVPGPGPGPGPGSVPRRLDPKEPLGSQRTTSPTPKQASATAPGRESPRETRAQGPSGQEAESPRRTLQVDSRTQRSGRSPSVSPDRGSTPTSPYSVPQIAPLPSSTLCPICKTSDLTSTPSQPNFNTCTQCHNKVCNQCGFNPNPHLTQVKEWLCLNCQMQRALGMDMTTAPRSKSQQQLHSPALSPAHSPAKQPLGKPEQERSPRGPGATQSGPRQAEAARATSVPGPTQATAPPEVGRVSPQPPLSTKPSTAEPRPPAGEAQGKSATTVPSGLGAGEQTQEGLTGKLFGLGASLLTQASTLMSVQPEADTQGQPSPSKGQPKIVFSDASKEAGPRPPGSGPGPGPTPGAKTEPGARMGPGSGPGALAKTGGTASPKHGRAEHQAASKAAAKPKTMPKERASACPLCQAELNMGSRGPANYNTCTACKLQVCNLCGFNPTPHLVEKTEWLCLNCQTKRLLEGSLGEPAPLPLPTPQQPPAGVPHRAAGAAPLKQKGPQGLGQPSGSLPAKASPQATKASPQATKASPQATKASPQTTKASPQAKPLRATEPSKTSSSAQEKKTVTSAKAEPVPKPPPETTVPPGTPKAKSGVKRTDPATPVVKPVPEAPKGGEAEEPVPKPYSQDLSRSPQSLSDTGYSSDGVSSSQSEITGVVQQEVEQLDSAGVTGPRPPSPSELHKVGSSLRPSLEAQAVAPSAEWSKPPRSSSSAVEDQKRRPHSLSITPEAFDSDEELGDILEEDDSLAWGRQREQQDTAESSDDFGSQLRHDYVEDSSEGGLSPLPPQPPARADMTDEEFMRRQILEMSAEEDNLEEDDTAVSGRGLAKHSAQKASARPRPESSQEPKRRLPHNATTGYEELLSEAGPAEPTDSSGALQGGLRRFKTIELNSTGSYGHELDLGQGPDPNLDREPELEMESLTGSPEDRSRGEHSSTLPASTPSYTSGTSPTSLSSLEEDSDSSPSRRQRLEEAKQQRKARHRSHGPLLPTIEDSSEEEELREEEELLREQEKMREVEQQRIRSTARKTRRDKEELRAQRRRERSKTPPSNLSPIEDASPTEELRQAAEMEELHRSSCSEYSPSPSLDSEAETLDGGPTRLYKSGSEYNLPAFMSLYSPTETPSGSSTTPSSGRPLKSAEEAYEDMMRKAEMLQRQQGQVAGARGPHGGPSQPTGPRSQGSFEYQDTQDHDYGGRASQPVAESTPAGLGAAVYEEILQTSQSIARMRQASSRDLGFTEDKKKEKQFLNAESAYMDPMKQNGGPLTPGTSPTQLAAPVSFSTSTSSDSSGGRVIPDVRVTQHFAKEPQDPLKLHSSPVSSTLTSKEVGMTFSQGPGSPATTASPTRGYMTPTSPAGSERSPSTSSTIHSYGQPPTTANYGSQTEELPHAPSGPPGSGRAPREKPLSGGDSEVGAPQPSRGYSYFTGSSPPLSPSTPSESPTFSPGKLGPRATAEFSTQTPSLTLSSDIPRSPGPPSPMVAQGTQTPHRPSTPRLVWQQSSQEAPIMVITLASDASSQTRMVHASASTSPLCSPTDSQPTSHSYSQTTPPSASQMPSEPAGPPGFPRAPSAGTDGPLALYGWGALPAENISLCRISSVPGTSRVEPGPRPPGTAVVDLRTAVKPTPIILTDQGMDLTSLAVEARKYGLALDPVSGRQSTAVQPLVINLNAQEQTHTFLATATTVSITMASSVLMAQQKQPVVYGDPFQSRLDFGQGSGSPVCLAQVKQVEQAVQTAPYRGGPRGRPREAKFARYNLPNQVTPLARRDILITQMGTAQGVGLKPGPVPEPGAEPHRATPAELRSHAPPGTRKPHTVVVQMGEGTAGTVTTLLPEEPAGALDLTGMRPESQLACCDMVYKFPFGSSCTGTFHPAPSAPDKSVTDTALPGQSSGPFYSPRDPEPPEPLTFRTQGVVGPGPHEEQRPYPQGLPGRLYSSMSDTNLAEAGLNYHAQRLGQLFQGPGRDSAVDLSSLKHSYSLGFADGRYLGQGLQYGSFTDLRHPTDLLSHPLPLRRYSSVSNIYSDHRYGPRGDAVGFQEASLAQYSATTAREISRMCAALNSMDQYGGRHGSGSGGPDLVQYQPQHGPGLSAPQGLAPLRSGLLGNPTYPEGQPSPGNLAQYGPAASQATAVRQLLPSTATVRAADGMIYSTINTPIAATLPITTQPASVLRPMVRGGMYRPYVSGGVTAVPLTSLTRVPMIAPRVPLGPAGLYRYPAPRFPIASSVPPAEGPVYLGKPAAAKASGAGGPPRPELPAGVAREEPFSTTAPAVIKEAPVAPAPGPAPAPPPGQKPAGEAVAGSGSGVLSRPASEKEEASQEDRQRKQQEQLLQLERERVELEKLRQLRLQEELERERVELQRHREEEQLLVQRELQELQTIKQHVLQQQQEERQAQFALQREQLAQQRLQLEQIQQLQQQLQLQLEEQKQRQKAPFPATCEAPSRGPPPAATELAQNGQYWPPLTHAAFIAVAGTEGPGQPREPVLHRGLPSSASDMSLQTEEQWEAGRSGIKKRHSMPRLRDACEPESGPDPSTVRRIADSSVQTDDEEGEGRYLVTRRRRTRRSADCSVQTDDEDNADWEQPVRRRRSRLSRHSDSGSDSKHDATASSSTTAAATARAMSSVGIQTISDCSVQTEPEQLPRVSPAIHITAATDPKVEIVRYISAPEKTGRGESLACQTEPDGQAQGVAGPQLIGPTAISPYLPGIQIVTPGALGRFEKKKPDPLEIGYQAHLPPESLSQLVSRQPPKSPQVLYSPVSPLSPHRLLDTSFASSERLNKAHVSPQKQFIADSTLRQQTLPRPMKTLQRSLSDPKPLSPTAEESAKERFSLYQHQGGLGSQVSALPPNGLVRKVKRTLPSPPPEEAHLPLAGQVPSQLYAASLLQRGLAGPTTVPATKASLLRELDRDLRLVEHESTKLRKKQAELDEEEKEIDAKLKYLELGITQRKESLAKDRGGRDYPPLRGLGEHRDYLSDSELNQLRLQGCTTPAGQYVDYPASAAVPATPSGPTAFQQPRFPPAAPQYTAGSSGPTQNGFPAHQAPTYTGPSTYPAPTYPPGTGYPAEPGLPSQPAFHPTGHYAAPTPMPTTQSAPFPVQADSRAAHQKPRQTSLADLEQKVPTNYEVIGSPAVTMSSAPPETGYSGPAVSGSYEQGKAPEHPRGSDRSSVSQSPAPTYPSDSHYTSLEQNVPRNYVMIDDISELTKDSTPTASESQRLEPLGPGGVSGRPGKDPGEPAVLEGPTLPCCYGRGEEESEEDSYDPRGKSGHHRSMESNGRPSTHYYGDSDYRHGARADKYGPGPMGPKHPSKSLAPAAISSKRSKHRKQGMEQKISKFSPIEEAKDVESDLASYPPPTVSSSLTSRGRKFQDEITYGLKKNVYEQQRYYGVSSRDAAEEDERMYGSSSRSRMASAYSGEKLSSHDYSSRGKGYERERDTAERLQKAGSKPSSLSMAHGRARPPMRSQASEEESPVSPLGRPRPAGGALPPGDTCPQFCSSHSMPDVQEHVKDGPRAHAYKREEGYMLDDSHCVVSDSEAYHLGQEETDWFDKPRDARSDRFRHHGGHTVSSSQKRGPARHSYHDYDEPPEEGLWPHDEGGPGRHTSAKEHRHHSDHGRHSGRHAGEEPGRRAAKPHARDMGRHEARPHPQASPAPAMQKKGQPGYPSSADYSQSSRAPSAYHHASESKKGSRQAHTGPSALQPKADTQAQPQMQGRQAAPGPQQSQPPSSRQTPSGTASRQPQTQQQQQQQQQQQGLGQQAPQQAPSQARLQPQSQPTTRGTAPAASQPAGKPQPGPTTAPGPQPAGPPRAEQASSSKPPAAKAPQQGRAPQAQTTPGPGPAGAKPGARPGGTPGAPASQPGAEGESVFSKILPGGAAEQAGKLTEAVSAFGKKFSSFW
UniProt P14106, residues 26-253: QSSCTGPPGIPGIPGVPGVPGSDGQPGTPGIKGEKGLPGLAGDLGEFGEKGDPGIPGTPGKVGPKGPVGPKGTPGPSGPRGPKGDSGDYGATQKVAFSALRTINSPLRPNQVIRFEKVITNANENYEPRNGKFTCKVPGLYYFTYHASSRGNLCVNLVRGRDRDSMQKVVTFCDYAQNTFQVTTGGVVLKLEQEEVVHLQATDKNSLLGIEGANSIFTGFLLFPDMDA
UniProt Q9CPQ1: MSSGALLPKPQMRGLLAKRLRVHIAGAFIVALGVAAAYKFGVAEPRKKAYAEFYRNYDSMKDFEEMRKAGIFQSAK
UniProt Q62167: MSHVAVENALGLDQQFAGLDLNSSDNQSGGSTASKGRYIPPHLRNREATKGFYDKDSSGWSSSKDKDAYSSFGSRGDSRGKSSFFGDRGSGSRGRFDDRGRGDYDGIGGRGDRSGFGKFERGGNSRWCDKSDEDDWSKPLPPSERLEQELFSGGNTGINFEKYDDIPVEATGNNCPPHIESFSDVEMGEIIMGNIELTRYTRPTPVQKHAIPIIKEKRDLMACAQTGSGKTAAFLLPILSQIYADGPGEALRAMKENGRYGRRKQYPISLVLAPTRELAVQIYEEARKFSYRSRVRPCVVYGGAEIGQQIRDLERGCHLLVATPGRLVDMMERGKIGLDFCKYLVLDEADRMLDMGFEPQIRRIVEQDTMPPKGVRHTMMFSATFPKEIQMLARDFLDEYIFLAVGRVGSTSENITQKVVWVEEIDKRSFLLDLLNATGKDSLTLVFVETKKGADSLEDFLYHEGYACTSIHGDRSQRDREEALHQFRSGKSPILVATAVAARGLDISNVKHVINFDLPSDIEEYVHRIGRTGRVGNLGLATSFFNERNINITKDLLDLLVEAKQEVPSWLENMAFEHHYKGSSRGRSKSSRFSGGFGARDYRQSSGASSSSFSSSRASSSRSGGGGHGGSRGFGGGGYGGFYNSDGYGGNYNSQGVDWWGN
UniProt Q8R1Q8: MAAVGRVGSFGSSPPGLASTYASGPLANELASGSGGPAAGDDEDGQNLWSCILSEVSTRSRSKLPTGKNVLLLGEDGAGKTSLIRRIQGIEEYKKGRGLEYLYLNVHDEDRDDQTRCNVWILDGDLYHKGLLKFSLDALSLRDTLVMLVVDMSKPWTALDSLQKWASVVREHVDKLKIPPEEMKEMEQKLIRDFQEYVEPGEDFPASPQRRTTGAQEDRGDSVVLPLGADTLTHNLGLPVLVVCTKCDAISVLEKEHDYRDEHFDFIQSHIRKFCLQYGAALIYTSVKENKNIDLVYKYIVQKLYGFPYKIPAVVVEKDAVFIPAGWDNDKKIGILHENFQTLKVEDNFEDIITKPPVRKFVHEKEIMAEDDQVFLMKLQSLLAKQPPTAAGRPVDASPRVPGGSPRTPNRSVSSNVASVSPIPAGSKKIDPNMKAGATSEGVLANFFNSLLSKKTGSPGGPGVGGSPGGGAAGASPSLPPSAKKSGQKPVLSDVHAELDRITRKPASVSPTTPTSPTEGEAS
UniProt Q61545: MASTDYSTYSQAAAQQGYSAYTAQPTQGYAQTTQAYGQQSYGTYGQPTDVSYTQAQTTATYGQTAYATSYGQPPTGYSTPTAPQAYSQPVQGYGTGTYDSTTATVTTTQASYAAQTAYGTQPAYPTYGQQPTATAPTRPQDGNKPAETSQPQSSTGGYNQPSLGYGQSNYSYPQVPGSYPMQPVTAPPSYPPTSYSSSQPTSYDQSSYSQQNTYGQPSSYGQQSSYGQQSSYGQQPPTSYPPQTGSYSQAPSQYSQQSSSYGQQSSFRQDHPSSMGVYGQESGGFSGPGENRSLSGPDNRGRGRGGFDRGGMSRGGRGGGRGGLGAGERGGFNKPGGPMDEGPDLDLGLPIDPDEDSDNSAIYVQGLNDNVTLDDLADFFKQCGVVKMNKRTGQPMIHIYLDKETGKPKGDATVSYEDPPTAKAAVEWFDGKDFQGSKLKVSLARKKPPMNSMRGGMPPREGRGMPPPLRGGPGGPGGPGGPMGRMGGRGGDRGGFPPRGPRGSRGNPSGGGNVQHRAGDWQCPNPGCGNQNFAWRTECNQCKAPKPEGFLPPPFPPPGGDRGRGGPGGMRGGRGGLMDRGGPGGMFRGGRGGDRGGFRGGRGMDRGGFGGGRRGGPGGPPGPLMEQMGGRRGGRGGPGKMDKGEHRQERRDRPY
UniProt P62259: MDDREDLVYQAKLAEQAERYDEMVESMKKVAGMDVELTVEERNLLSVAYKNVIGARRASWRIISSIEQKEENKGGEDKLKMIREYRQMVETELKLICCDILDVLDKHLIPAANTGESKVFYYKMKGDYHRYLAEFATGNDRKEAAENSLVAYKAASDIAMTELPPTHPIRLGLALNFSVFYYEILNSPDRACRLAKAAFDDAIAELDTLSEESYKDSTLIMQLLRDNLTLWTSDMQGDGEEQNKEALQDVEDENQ
UniProt P18760: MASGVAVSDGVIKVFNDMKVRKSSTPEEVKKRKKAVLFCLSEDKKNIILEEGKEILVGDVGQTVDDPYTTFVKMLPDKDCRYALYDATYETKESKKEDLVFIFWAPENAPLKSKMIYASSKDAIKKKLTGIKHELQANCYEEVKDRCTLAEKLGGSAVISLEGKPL

T1: native KCC2 (K+-Cl- cotransporter KCC2) (mouse (endogenous in brain)) (UniProt Q91V14)
T1 sequence: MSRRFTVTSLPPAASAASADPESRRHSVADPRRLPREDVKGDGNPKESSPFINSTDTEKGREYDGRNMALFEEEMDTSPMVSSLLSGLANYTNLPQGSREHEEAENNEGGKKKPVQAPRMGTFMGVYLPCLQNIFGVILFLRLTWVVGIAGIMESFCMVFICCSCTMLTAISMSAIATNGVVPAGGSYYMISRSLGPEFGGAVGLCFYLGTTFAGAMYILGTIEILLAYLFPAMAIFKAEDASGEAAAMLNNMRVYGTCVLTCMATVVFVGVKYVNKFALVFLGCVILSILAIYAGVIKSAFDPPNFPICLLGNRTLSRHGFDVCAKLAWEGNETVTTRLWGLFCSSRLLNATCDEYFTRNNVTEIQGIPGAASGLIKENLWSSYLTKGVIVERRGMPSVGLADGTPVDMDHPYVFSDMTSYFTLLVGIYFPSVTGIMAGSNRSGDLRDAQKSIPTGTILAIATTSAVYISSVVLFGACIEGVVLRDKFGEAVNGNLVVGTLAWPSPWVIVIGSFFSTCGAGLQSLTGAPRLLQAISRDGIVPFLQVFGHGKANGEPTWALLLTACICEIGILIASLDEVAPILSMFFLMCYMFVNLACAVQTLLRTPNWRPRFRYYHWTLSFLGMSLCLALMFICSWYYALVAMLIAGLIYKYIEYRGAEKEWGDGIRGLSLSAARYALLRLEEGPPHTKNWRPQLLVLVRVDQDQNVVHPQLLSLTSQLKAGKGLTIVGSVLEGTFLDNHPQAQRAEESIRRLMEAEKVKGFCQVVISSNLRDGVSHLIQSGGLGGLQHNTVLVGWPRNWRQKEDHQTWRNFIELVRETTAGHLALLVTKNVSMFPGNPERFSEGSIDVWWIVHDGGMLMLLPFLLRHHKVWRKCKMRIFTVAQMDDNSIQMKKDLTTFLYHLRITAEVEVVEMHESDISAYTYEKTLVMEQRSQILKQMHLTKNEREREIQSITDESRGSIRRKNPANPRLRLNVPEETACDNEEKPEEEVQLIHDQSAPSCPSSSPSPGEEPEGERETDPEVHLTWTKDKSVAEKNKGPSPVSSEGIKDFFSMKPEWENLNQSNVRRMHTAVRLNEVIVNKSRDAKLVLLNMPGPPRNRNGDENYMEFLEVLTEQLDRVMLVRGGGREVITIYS

B1: STMN2 (protein, UniProt P55821 1-179)
chain: MAKTAMAYKEKMKELSMLSLICSCFYPEPRNINIYTYDDMEVKQINKRASGQAFELILKPPSPISEAPRTLASPKKKDLSLEEIQKKLEAAEERRKSQEAQVLKQLAEKREHEREVLQKALEENNNFSKMAEEKLILKMEQIKENREANLAAIIERLQEKERHAAEVRRNKELQVELSG

target: T1, native KCC2 (K+-Cl- cotransporter KCC2) (mouse (endogenous in brain)); experiment: affinity purification with mass spectrometry; anti-KCC2 antibodies (C-terminal, N-terminal KCC2b, pS940) cross-linked with DMP to GammaBind IgG beads; C12E9-solubilised whole-brain membrane fractions of P5 and P50 mice; 4 hr, 4°C; parallel IgG/IgY controls

| binding | Molecule |
| --- | --- |
| binds | ACOX3 (from UniProt Q9EPL9 1-700) |
| binds | ACTN4 (from UniProt P57780 1-912) |
| binds | ATP2A2 (from UniProt O55143 1-1044) |
| binds | ATP2B2 (from UniProt Q9R0K7 1-1198) |
| binds | ATP5H (from UniProt Q9DCX2 1-161) |
| binds | ATP6V0A1 (from UniProt Q9Z1G4 1-839) |
| binds | ATP6V1F (from UniProt Q9D1K2 1-119) |
| binds | BSN (from UniProt O88737 1-3942) |
| binds | C1QB (from UniProt P14106 26-253) |
| binds | CAMK2D (from UniProt Q6PHZ2 1-499) |
| binds | CAMK2G (from UniProt Q923T9 1-529) |
| binds | CCT5 (from UniProt P80316 1-541) |
| binds | CCT6A (from UniProt P80317 1-531) |
| binds | CKMT1 (from UniProt P30275 40-418) |
| binds | COX6C (from UniProt Q9CPQ1 1-76) |
| binds | CRMP1 (from UniProt P97427 1-572) |
| binds | CSNK2A1 (from UniProt Q60737 1-391) |
| binds | DCTN2 (from UniProt Q99KJ8 1-402) |
| binds | DDX3X (from UniProt Q62167 1-662) |
| binds | DDX17 (from UniProt Q501J6 1-650) |
| binds | DHX9 (from UniProt O70133 1-1380) |

| binding | Molecule |
| --- | --- |
| binds | DNAJA3 (mouse (endogenous in brain)) |
| binds | DPYSL3 (from UniProt Q62188 1-570) |
| binds | DYNC1LI1 (from UniProt Q8R1Q8 1-523) |
| binds | EWSR1 (from UniProt Q61545 1-655) |
| binds | FASN (from UniProt P19096 1-2504) |
| binds | GLS (from UniProt D3Z7P3 55-674) |
| binds | GNB1 (from UniProt P62874 1-340) |
| binds | HMCN2 (from UniProt A2AJ76 20-5100) |
| binds | KIF21B (from UniProt Q9QXL1 1-1668) |
| binds | LGI3 (from UniProt Q8K406 31-548) |
| binds | NDUFA2 (from UniProt Q9CQ75 1-99) |
| binds | NDUFA9 (from UniProt Q9DC69 36-377) |
| binds | NDUFS1 (from UniProt Q91VD9 24-727) |
| binds | NDUFS8 (from UniProt Q8K3J1 35-212) |
| binds | NEDD4L (from UniProt Q8CFI0 1-1004) |
| binds | NUDT21 (from UniProt Q9CQF3 1-227) |
| binds | PACSIN1 (PKC and CSNK2A1 substrate in neurons) (from UniProt Q61644 1-441) |
| binds | PKM (from UniProt P52480 1-531) |
| binds | PPFIA3 (from UniProt P60469 1-1194) |
| binds | PPIA (from UniProt P17742 1-164) |
| binds | PPP1CA (from UniProt P62137 1-330) |

| binding | Molecule |
| --- | --- |
| binds | PPP2CA (from UniProt P63330 1-309) |
| binds | RAB2A (from UniProt P53994 1-212) |
| binds | SLC1A2 (from UniProt P43006 1-572) |
| binds | SLC8A2 (from UniProt Q8K596 21-921) |
| binds | SNAP25 (from UniProt P60879 1-206) |
| binds | SNRPA (from UniProt Q62189 1-287) |
| binds | SPTBN1 (from UniProt Q62261 1-2363) |
| binds | SYT1 (from UniProt P46096 1-421) |
| binds | TCP1 (from UniProt P11983 1-556) |
| binds | TUBB4A (from UniProt Q9D6F9 1-444) |
| binds | TUBB4B (from UniProt P68372 1-445) |
| binds | USP24 (from UniProt B1AY13 1-2617) |
| binds | VCP (from UniProt Q01853 1-806) |
| binds | WWP1 (from UniProt Q8BZZ3 1-918) |
| binds | YWHAE (from UniProt P62259 1-255) |
| binds | YWHAZ (from UniProt P63101 1-245) |
| binds | cofilin1 (from UniProt P18760 1-166) |
| binds | creatine kinase B (from UniProt Q04447 1-381) |
| binds | sodium/potassium ATPase subunit 2 (from UniProt Q6PIE5 1-1020) |
| binds | B1 |

| Molecule | binding |
| --- | --- |
| STX1B (from UniProt P61264 1-288) | binds |

These are yes or no findings as the source states them, for the method shown. Binding seen in cells or lysates may run through a third protein. Here binding means that the protein was enriched with, or labelled near, the bait; the list need not be complete.
